PubChem BioAssay AID602196 – INSERM – 2012
Assay: 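Modifiers of cisplatin sensitivity in A549 cells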. Cells: human A549 lung cancer cells. Reagents: siRNA pair against human genes. Time to read-out: 48 h transfection before cisplatin; time from cisplatin to read-out not stated. Treatment: cisplatin at a dose killing half of control-siRNA cells; exact dose and duration not given. Detection: 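Cisplatin cell death as a shift from the 50% death seen with control siRNA; siRNAs toxic or growth-blocking alone scored 0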. Reading the numbers: two-siRNA summed score (-2 to +2): higher = both siRNAs protect from cisplatin killing; -2 means both sensitise; mean protection from cisplatin (shift in death) and protection from cisplatin (shift in death), siRNA C and protection from cisplatin (shift in death), siRNA D: higher = protection from cisplatin killing. Hit rule: 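Each siRNA scores 0 if harmful alone by LDH or WST-1, otherwise +1 if it reduces and -1 if it increases cisplatin killing; a gene is active when both siRNAs agree (sum +2 or -2)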. Calls: active = both siRNAs shift cisplatin killing the same way; inactive = no consistent shift, or siRNA harmful alone.
In all, the deposit lists about 23,000 reagents; this is a part drawn at random. 455 of them (2%) count as active. 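Active includes both protection and sensitisation; some change values fall well beyond the stated -50 to +50 range.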 A number with no mark means an inactive call. The numbers tell different reagents against one gene apart. The record does not give: the amount of reagent.

target gene,reagent no.,two-siRNA summed score (-2 to +2),mean protection from cisplatin (shift in death) (%),"protection from cisplatin (shift in death), siRNA C (%)","protection from cisplatin (shift in death), siRNA D (%)"
LOC440241,1,1,14.6,18.2,11.1
PPP3CB,1,1,7.9,13.2,2.6
UNKL,1,0,0.1,-0.9,1.1
UNKL,2,1,21.5,7.4,35.6
TOMM5,1,1,15.7,19.4,12
PSMA7,1,0,-0.9,-9.3,7.5
LOC387912,1,0,-4.8,12.7,-22.3
LOC442441,1,0,0.9,8.6,-6.8
DNM1P44,1,1,19.5,25.2,13.8
LOC440713,1,0,27.5,26.1,29
RNF148,1,0,3.5,4.9,2.1
IRX5,1,1,15.2,4.7,25.8
FAM120AOS,1,0,-5.6,-11.9,0.7
LOC388903,1,1,13.4,15.7,11.2
RAB20,1,0,-10.1,-7.9,-12.3
ANKRD12,1,0,8.5,10.1,6.8
MLNR,1,0,4.2,3.9,4.6
UTRN,1,1,13.9,-6.5,34.3
OR6C68,1,1,12.4,9.1,15.6
FOXP2,1,-1,-3.5,-13.3,6.3
DAZAP2,1,0,1.4,-0.5,3.4
EMC4,1,0,2.2,6,-1.6
APOBEC3B,1,0,-6.1,2.3,-14.5
LOC222699,1,0,9.7,17.1,2.2
RHBDD3,1,0,-9,3.1,-21.1
LOC442566,1,1,4.4,-3.3,12.2
ERGIC1,1,0,-3.6,-6.6,-0.6
C4orf54,1,1,2.7,-3.8,9.1
LOC442108,1,0,7.8,10.7,4.9
GABPA,1,0,17.4,5,29.7
HRES1,1,1,10.7,4.5,17
TREM2,1,0,-11.1,-17.2,-5
RPP25,1,-1,-3.1,6.7,-12.9
LOC389192,1,0,2.3,15.8,-11.3
ARHGEF25,1,0,2.5,2.9,2.2
RASD2,1,-1,-11.2,-11,-11.4
PSKH2,1,1,8.7,2,15.3
PRLHR,1,0,0.9,9.1,-7.2
RGP1,1,0,-2.1,-5.2,1
COMMD9,1,0,4.8,10.8,-1.2
COMMD9,2,1,25.6,33.4,17.8
LOC126502,1,0,-0.3,8.6,-9.2
HSPB7,1,0,-5.5,-3.8,-7.3
TRIP10,1,1,11,7.6,14.5
SNX14,1,0,9.3,10.3,8.2
CCL19,1,0,-1.5,-5.2,2.2
INTS12,1,0,-8,-10.8,-5.1
MAPK8IP1,1,0,3.3,3.1,3.4
LOC389983,1,0,25.2,31.9,18.5
LOC146443,1,0,18,19.4,16.5
CFHR2,1,0,3.2,-0.7,7.1
FBXW4P1,1,-1,-20.3,-37,-3.6
TBC1D19,1,-1,-4.4,4.9,-13.6
LOC285188,1,0,11.2,7.4,15
ARGLU1,1,0,-1.1,-0.7,-1.6
TCP11L2,1,0,4,15.7,-7.7
MAGEB1,1,1,6.8,-11.9,25.4

Individual results from the list.
For “two-siRNA summed score (-2 to +2)”, CFHR2 is entered as 0
LOC440241, mean protection from cisplatin (shift in death) (%) → 14.6
For “protection from cisplatin (shift in death), siRNA D (%)”, CCL19 is entered as 2.2
Value of ARGLU1 under “mean protection from cisplatin (shift in death) (%)”: -1.1
HRES1, mean protection from cisplatin (shift in death) (%) = 10.7
Under “protection from cisplatin (shift in death), siRNA C (%)”, TOMM5 reads 19.4
